Source: the supplement of paper PMC10849652
The other results are listed elsewhere or left out. Residues, ends and D or L forms follow the SMILES beside them. *: point of attachment. Cbz = O=C(OCc1ccccc1)*

Chains of the proteins cited; added tags and fusions are not shown. Lines headed by an entry give the natural chain unless they say otherwise; changes in a name come on top.
UniProt O60936: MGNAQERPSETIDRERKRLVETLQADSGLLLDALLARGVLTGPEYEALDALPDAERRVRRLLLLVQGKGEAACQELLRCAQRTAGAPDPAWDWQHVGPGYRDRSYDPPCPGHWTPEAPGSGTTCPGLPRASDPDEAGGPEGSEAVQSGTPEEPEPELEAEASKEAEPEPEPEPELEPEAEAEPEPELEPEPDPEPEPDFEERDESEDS
UniProt O75052: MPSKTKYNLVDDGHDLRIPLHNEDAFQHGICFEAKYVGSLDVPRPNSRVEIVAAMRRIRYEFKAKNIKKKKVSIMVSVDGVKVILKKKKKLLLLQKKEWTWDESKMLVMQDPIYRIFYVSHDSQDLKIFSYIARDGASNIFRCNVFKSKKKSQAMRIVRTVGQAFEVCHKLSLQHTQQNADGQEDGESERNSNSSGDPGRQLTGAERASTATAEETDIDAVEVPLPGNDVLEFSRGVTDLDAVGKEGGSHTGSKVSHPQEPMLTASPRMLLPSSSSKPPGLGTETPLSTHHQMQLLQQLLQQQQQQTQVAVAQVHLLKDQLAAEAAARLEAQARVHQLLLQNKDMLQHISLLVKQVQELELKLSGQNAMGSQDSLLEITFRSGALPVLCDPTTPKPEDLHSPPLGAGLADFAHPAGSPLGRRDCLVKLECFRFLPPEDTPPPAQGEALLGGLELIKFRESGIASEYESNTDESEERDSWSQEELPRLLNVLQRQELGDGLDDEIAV
UniProt Q9NQ35: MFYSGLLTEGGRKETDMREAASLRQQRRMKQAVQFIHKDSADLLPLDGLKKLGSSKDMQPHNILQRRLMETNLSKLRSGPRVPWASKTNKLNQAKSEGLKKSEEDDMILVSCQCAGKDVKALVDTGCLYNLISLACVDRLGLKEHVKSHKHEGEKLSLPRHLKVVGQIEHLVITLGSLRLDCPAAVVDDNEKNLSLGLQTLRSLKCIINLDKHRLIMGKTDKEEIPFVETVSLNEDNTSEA
UniProt Q8NC67: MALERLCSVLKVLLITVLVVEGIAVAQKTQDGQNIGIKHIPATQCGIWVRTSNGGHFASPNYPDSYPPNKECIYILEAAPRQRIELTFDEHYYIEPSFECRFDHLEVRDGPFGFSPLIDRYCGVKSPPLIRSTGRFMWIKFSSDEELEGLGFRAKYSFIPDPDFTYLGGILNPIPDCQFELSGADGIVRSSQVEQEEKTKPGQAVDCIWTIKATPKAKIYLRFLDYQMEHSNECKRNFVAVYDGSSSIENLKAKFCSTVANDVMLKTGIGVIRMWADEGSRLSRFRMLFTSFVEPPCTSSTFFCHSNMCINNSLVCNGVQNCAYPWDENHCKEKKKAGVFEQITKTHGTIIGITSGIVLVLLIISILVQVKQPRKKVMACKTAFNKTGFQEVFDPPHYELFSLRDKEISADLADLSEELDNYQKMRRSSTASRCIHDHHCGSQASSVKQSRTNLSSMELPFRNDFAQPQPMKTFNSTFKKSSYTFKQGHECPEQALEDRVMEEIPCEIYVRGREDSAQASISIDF
UniProt P51956: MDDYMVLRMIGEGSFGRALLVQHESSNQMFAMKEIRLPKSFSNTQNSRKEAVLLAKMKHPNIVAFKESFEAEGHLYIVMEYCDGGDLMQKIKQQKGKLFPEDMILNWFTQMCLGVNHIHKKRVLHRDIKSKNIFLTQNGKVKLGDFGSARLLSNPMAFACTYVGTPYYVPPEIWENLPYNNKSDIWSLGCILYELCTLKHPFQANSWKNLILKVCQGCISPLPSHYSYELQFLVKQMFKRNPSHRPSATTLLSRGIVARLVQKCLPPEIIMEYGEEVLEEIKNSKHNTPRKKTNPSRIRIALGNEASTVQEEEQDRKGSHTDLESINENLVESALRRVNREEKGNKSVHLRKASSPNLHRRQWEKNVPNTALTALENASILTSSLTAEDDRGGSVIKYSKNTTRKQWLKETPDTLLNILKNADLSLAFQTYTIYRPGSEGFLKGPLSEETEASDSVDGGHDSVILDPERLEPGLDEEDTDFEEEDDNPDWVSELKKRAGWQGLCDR
UniProt Q9BVI4: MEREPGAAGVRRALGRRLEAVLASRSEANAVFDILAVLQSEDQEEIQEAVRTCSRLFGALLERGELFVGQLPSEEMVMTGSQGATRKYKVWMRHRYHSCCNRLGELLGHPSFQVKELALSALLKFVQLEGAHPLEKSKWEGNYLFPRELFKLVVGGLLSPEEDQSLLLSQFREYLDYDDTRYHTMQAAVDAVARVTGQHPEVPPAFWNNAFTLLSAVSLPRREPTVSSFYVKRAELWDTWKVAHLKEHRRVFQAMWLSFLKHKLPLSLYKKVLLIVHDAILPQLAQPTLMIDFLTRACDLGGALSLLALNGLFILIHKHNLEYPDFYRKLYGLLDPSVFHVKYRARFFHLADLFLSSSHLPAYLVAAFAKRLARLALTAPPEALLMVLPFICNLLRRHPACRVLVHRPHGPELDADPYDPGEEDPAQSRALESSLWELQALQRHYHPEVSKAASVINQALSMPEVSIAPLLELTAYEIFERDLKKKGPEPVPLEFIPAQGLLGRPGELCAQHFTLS
UniProt Q96MY1: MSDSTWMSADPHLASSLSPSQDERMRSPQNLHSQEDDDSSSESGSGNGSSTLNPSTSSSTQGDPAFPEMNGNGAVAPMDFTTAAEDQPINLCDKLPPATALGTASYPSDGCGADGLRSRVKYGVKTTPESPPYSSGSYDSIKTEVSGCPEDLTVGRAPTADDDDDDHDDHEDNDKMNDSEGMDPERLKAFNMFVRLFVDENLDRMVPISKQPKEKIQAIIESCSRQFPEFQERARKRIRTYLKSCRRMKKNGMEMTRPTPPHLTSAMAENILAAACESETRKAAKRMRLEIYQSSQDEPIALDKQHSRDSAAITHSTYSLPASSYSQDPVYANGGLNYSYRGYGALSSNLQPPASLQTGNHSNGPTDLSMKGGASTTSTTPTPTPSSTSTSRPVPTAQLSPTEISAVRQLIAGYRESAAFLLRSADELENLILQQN
UniProt Q9NYR9: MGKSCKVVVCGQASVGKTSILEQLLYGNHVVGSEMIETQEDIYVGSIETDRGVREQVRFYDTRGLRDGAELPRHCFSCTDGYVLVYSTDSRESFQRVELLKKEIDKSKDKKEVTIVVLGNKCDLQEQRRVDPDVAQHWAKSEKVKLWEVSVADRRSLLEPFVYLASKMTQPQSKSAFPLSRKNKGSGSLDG
UniProt P78316: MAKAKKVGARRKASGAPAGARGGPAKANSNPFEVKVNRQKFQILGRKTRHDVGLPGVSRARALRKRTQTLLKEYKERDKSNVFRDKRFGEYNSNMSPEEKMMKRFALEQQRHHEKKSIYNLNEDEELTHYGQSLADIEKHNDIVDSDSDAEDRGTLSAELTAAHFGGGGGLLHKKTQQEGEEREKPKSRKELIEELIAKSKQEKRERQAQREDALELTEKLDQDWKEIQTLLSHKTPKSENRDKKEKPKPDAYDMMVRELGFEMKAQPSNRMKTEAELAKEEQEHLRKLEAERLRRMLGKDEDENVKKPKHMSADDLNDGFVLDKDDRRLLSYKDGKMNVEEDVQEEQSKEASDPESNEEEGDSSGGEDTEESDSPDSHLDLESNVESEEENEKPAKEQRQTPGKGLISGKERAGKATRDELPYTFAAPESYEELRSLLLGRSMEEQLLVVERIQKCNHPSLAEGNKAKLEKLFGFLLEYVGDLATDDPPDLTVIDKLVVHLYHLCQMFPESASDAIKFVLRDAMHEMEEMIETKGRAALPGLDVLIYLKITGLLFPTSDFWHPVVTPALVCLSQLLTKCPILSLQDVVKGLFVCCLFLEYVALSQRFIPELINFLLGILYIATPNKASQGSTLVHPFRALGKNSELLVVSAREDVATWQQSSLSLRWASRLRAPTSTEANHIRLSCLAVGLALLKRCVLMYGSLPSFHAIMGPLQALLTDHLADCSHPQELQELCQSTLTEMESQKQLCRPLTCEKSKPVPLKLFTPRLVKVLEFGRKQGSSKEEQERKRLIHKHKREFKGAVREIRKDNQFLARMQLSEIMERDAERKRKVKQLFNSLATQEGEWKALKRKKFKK
UniProt Q96T66: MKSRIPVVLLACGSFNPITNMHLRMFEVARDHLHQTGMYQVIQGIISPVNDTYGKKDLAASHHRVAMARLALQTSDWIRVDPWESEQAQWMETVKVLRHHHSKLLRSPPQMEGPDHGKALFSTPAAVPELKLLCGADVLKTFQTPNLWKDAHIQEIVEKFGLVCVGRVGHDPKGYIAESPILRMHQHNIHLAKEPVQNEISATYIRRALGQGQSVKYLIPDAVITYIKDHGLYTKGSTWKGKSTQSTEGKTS
UniProt Q5SY16: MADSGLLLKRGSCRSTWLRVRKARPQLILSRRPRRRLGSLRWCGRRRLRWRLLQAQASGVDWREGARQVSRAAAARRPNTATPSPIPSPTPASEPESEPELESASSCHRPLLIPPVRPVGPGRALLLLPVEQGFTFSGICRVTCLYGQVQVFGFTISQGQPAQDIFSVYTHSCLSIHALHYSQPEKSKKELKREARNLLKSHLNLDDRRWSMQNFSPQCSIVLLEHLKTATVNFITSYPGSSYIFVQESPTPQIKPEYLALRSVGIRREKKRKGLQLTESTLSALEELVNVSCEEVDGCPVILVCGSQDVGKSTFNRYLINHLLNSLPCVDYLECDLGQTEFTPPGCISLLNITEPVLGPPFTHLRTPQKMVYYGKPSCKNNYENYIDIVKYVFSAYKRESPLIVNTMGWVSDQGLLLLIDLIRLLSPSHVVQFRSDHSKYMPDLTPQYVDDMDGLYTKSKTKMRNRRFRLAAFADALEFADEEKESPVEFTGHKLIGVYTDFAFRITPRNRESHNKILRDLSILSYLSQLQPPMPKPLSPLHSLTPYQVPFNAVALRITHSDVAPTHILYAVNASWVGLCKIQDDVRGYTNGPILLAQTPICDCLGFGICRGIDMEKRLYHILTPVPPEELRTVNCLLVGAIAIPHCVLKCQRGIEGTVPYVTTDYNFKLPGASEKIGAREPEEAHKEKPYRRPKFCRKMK
UniProt Q9GZP1: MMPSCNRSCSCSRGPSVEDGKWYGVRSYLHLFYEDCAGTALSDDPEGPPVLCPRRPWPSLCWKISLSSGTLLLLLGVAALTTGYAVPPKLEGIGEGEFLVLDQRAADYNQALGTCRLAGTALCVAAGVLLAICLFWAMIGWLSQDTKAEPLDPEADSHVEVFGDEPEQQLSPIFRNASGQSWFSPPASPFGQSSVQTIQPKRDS
UniProt Q14494: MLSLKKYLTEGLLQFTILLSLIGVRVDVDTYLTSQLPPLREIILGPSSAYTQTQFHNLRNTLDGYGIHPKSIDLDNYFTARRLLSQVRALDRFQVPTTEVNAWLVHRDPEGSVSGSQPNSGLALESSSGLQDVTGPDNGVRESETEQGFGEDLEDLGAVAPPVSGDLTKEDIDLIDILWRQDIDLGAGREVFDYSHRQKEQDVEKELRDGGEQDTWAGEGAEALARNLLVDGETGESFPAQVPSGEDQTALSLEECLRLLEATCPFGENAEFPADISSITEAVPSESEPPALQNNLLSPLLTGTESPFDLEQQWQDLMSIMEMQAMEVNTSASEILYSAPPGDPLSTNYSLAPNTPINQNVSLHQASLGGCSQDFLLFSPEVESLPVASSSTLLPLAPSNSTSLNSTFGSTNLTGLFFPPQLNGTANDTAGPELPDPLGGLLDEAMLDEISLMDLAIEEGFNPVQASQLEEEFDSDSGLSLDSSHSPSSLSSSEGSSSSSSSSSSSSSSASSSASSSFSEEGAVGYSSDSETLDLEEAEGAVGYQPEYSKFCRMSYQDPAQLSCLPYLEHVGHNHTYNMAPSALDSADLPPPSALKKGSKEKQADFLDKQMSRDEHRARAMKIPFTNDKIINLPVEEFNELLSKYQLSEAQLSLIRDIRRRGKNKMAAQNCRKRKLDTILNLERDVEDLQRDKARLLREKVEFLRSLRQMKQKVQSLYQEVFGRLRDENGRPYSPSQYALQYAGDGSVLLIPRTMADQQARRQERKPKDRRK
UniProt Q9UQ49: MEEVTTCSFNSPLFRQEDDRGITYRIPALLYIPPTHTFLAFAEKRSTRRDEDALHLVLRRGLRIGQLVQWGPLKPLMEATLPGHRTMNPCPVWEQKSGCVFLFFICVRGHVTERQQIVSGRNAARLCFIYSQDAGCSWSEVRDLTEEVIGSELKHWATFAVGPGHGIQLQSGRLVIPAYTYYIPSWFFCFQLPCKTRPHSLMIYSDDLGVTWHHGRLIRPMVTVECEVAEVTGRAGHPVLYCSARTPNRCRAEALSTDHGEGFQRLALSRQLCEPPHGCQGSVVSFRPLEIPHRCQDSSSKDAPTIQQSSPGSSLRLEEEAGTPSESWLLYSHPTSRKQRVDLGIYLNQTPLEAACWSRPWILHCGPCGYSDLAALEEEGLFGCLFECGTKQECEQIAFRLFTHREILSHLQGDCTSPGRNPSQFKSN

Legend:
Assay in all cases: log2 fold change, soluble protein after heating vs DMSO (PISA); higher = thermal stabilisation; K562 cells, 10 uM, 30 min; active = over 0.2 and 3.5 SD of the protein, either way, in both replicates (recomputed)
IRAK-1-4 Inhibitor I = compound: C1COCCN1CCN2C3=CC=CC=C3N=C2NC(=O)C4=CC(=CC=C4)[N+](=O)[O-] [IRAK-1-4 Inhibitor I]
How it was run: (§1)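 K562 cells at 2×10^6 cells/mL were exposed to 10 μM compound for 30 min, then aliquots were heated for 3 min across 48°C-58°C, pooled, and extracted in PBS containing 0.5% NP-40 at 4°C. The supernatant after 21,000xg for 90 min was taken as soluble protein and measured by TMTpro 16plex LC-MS/MS with channel sums equalised. Thermal stability is reported relative to control samples, with values from duplicates. Fold changes are given on a log2 scale.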

ralimetinib = compound: CC(C)(C)Cn1c(N)nc2ccc(-c3[nH]c(C(C)(C)C)nc3-c3ccc(F)cc3)nc21 [ralimetinib]
How it was run: as §1

[1] = compound: CC(C)(O)CC(=O)NCCn1ccc2ncnc(Nc3ccc(Oc4cccc(C(F)(F)F)c4)c(Cl)c3)c21
How it was run: as §1

[2] = compound: CC(C)C[C@@H](C=O)NC(=O)[C@H](CC(C)C)NC(=O)[C@H](CC(C)C)NC(=O)OCc1ccccc1
How it was run: as §1

pinometostat = compound: CC(C)N(C[C@H]1O[C@@H](n2cnc3c(N)ncnc32)[C@H](O)[C@@H]1O)[C@H]1C[C@@H](CCc2nc3cc(C(C)(C)C)ccc3[nH]2)C1 [pinometostat]
How it was run: as §1

[3] = compound: CC1=C(C(CC(=O)N1)C2=CC=C(C=C2)C(F)(F)F)C(=O)NC3=C(C=C4C(=C3)C=NN4)F
How it was run: as §1

[4] = compound: CC1=C(C2=C(C=C1)C(=O)C3=CC=CC=C3N2CCCN)C
How it was run: as §1

[5] = compound: CC1=C(C=C(C=C1)NC(=O)C2=CC(=CC=C2)C(C)(C)C#N)NC3=CC4=C(C=C3)N=CN(C4=O)C
How it was run: as §1

[6] = compound: CC1=C(C=C(C=C1)NC(=O)C2=CC(=CC=C2)N(C)C)NC(=O)C3=CC=C(C=C3)O
How it was run: as §1

[7] = compound: CC1=CC=C(C=C1)SC2=C3C=C(SC3=CN=C2)C(=O)N
How it was run: as §1

[8] = compound: CC1=NC(=CC=C1)C2=C(N=C(N2)C(C)(C)C)C3=CC4=NC=CN=C4C=C3
How it was run: as §1

Nexturastat A = compound: CCCCN(Cc1ccc(C(=O)NO)cc1)C(=O)Nc1ccccc1 [Nexturastat A]
How it was run: as §1

vemurafenib = compound: CCCS(=O)(=O)Nc1ccc(F)c(C(=O)c2c[nH]c3ncc(-c4ccc(Cl)cc4)cc23)c1F [vemurafenib]
How it was run: as §1

[9] = compound: CCCS(=O)(=O)Nc1ccc(F)c(C(=O)c2c[nH]c3ncc(Cl)cc23)c1F
How it was run: as §1

[10] = compound: CCCc1cc(C)[nH]c(=O)c1CNC(=O)c1cc(-c2ccnc(N3CCN(C)CC3)c2)cc2c1cnn2C(C)C
How it was run: as §1

ibrutinib = compound: C=CC(=O)N1CCC[C@@H](n2nc(-c3ccc(Oc4ccccc4)cc3)c3c(N)ncnc32)C1 [ibrutinib]
How it was run: as §1

[11] = compound: CC(C)C1=C2N=C(C=C(N2N=C1)NCC3=CC=CC=C3)NCCCCCCN
How it was run: as §1

givinostat = compound: CCN(CC)Cc1ccc2cc(COC(=O)Nc3ccc(C(=O)NO)cc3)ccc2c1 [givinostat]
How it was run: as §1

barasertib = compound: CCN(CCCOc1ccc2c(Nc3cc(CC(=O)Nc4cccc(F)c4)[nH]n3)ncnc2c1)CCOP(=O)(O)O [barasertib]
How it was run: as §1

[12] = compound: CC(=O)c1cnc2ccc(-c3cc(Cl)c(O)c(Cl)c3)nc2c1N[C@H]1CC[C@H](CN(C)C)CC1
How it was run: as §1

Measured: log2 fold change

NOL3 isoform 3 (UniProt O60936)
inactive: IRAK-1-4 Inhibitor I 0.142 | ralimetinib -0.092 | [1] -0.153 | [2] -0.014 | pinometostat 0.287 | [3] -0.17 | [4] -0.323 | [5] 0.134 | [6] -0.081 | [7] -0.019 | [8] -0.155 | Nexturastat A 0.227 | vemurafenib 0.001 | [9] -0.064 | [10] -0.013

NOS1AP (UniProt O75052)
active: [2] 1.38
inactive: ibrutinib -0.061 | ralimetinib 0.07 | [1] -0.073 | [11] -0.026 | [4] 0.154 | [6] -0.016 | [7] 0.08 | Nexturastat A -0.058 | vemurafenib -0.335 | [9] -0.161 | [10] 0.101 | givinostat -0.117 | barasertib 0.046

NRIP3 (UniProt Q9NQ35)
inactive: [12] -0.007 | [5] -0.073

NETO2 (UniProt Q8NC67)
inactive: vemurafenib -0.019

NEK3 (UniProt P51956)
inactive: IRAK-1-4 Inhibitor I 0.104 | [12] -0.184 | ralimetinib -0.168 | [1] -0.015 | [11] 0.127 | [2] 0.098 | pinometostat -0.015 | [4] 0.018 | [5] 0.058 | [6] -0.055 | [7] 0.052 | [8] -0.108 | Nexturastat A -0.033 | vemurafenib 0.089 | [9] -0.123 | [10] -0.063 | givinostat -0.013

NOC4L (UniProt Q9BVI4)
inactive: [3] -0.151

NOL4L (UniProt Q96MY1)
inactive: [1] -0.059 | [11] 0.047 | [3] 0.006 | [4] -0.008 | [5] -0.062 | Nexturastat A 0.085 | givinostat 0.073

NIPSNAP2 (UniProt C9J7B1)
inactive: ibrutinib 0.052 | [12] -0.389 | [5] 0.067 | [10] -0.182 | barasertib 0.01

NKIRAS2 (UniProt Q9NYR9)
inactive: IRAK-1-4 Inhibitor I 0.051 | [1] 0 | [11] 0.055 | pinometostat 0.099 | [3] 0.128 | [4] -0.032 | [5] -0.085 | [8] 0.177 | Nexturastat A 0 | [10] 0.049 | givinostat -0.135

NFATC1 (UniProt O95644)
inactive: [1] 0.042 | [5] 0.021 | [7] 0.029 | Nexturastat A 0.177 | vemurafenib -0.072 | [9] 0.088 | [10] 0.218

NFIC isoform 6 (UniProt P08651)
inactive: vemurafenib 0.318

Quoted from the entries so far (two entries):
NOC4L (UniProt Q9BVI4)
inactive: [3] -0.151

NOL4L (UniProt Q96MY1)
inactive: [1] -0.059 | [11] 0.047 | [3] 0.006 | [4] -0.008 | [5] -0.062 | Nexturastat A 0.085 | givinostat 0.073

Further entries:

NOP14 (UniProt P78316)
inactive: IRAK-1-4 Inhibitor I -0.125 | [12] -0.112 | [1] -0.143 | pinometostat 0.078 | [3] -0.04 | [4] -0.212 | [5] 0.018 | [8] 0.002 | Nexturastat A 0.156 | vemurafenib 0.193 | [10] 0.204

NMNAT3 (UniProt Q96T66)
inactive: ibrutinib -0.088 | [1] -0.018 | [11] 0.126 | [5] 0.049 | [7] 0.04 | Nexturastat A -0.022 | [9] -0.045 | [10] 0.005 | givinostat 0.451 | barasertib 0.148

NOL9 (UniProt Q5SY16)
inactive: [11] -0.03 | givinostat 0.02

NRSN2 (UniProt Q9GZP1)
inactive: [1] 0.091 | [11] 0.142 | [4] 0.183 | [5] -0.002 | Nexturastat A 0.053 | givinostat -0.007

NRBP2 (UniProt Q9NSY0)
inactive: IRAK-1-4 Inhibitor I -0.015 | ralimetinib -0.044 | [11] -0.101 | [2] 0.043 | pinometostat -0.004 | [6] -0.063 | [8] -0.005 | givinostat 0.038

NOL8 (UniProt Q76FK4)
inactive: [7] 0.053 | [9] 0.182

NFE2L1 (UniProt Q14494)
inactive: IRAK-1-4 Inhibitor I -0.066 | [1] -0.061 | [11] 0.328 | pinometostat 0.027 | [4] -0.16 | [7] -0.054 | [8] 0.062 | Nexturastat A 0.12 | vemurafenib 0.028 | [9] 0.105 | givinostat -0.015

NOTCH1 (UniProt P46531)
inactive: [1] -0.011 | [3] 0.025 | Nexturastat A 0.06

NOC3L (UniProt Q8WTT2)
inactive: ibrutinib -0.073 | [12] -0.141 | [1] 0.1 | [3] 0.157 | Nexturastat A -0.108 | [10] -0.726 | barasertib 0

NRROS (UniProt Q86YC3)
inactive: [3] -0.367 | [7] -0.027 | [9] -0.191

NEU3 isoform 2 (UniProt Q9UQ49)
active: [11] -0.984
inactive: [5] 0.022 | [7] -0.112 | [9] 0.133 | givinostat 0.189
